Assay results reported in patent US20160368993A1 (University of California, published 2016).
Results are given in words; binding and its absence hold for the method and conditions named. Some results given as binding are weak or reduced against the parent protein; the word gives no strength.

The chains behind the UniProt entries cited, without tags or fusion partners. Where a name states a change or a piece, a line headed by the entry shows the natural chain unless it says otherwise.
UniProt P06756: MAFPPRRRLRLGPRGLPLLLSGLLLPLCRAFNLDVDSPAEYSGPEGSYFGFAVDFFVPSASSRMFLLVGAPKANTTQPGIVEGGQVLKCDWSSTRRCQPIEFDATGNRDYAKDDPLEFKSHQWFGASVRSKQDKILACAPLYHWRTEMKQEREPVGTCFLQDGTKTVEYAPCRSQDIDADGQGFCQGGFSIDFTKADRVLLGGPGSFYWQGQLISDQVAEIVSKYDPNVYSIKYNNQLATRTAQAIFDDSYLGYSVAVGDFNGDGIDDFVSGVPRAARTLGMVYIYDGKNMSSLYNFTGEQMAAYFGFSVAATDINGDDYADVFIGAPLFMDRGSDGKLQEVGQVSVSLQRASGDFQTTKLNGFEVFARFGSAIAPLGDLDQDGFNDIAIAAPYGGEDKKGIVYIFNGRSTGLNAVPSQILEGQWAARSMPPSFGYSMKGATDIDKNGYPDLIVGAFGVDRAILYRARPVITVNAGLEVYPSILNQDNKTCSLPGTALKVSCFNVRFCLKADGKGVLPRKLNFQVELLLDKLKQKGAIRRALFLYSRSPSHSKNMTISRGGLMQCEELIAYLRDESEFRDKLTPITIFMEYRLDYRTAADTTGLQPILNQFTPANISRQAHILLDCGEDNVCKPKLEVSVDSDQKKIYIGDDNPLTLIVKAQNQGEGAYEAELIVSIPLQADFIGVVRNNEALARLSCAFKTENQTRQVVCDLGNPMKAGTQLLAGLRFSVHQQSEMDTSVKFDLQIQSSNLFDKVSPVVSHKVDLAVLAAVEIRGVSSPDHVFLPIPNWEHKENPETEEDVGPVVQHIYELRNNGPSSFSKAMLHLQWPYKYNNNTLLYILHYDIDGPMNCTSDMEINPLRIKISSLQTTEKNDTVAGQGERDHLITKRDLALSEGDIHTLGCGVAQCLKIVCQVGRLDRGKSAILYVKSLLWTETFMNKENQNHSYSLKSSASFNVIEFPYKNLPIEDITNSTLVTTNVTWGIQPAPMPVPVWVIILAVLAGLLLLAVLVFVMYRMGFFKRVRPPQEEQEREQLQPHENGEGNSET
UniProt P18564: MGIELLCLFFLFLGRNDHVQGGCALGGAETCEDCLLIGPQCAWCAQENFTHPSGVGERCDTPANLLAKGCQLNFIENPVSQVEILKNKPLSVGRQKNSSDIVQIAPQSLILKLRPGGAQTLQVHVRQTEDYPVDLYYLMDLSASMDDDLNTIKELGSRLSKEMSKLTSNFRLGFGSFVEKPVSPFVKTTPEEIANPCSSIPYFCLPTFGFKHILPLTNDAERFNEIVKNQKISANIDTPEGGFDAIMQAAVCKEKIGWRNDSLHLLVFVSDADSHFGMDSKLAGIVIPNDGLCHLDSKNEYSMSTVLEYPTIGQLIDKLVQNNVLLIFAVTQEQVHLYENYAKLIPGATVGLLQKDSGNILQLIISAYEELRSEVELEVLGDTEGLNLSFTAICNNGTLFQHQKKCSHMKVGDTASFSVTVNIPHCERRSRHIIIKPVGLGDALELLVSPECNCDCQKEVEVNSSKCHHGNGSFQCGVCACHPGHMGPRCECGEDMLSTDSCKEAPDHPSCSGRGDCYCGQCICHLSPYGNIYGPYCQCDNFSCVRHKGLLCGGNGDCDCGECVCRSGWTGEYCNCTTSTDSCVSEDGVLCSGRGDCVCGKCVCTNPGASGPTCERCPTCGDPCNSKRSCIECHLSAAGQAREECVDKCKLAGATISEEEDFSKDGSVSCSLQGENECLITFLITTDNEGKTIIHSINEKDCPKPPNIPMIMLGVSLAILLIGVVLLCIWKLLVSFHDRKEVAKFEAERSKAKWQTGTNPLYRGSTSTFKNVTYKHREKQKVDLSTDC

Experiments:
[1] = target: T1, αvβ6 integrin (R&D Systems), immobilized (UniProt P06756 31-992; P18564 22-707); test: competitive binding ELISA, summary
T1 construct: Bought protein captured on the plate by the anti-αv antibody P2W7; also called immobilized αvβ6 integrin

[2] = target: T2, αvβ6 integrin on DX3Puroβ6 cells (human) (UniProt P06756+P18564); test: flow cytometry, FIGS. 11C and 11D
[3] = target: T2, αvβ6 integrin on DX3Puroβ6 cells (human); test: flow cytometry, summary
[4] = target: T2, αvβ6 integrin on DX3Puroβ6 cells (human); test: flow cytometry on DX3Puroβ6 and DX3Puro cells

binding [1]	binding [2]	binding [3]	binding [4]	Binder
binds	–	–	–	anti-αvβ6 diabody (other, Non-covalent dimer of two VH-G2S-VL-His6 chains (diabody), secreted from 293-F cells; also called B6DiaR-G2S; parental anti-αvβ6 diabody) scFv: EVQLVESGGGLVQPGGSLRLSCAASGFTFSRYVMSWVRQAPGKGLEWVASISSGGRMYYPDTVKGRFTISRDNAKNSLYLQMNSLRAEDTAVYYCARGSIYDGYYVFPYWGQGTLVTVSSGGSEIVLTQSPATLSLSPGERATLSCSASSSVSSSYLYWYQQKPGQAPRLLIYSTSNLASGIPARFSGSGSGTDFTLTISSLEPEDFAVYYCHQWSTYPPTFGGGTKVEIKHHHHHH
binds	binds	binds	binds	anti-αvβ6 Cys-diabody (other, C-terminal engineered cysteines of the two chains form an interchain disulfide, Covalent dimer; also called disulfide-stabilized anti-αvβ6 Cys-diabody; B6DiaR-G2S-Cys) scFv: EVQLVESGGGLVQPGGSLRLSCAASGFTFSRYVMSWVRQAPGKGLEWVASISSGGRMYYPDTVKGRFTISRDNAKNSLYLQMNSLRAEDTAVYYCARGSIYDGYYVFPYWGQGTLVTVSSGGSEIVLTQSPATLSLSPGERATLSCSASSSVSSSYLYWYQQKPGQAPRLLIYSTSNLASGIPARFSGSGSGTDFTLTISSLEPEDFAVYYCHQWSTYPPTFGGGTKVEIKHHHHHHGGC
